Measured data: PubChem BioAssay AID1159578 (Peter MacCallum Cancer Centre, 2015)
The deposit covers about 18,000 reagents; below is a part drawn at random. About 1,030 of all reagents (5.7%) count as active. 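Inactive calls also include pools with fewer than 3300 nuclei, whose migration was not assessed.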 Raw values are not corrected between plates. Not all columns of the deposit are shown. Reagent sequences are not shown.

Screen: 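Genome-wide hunt for genes controlling movement of lymphatic endothelial cells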 (primary screen)
Cells: human lymphatic endothelial cells
Knock-down reagent: siRNA pool against human genes, 40 nM
Time to read-out: 48 h after transfection
Detection: 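High-content imaging of dye-stained cells in a scratch assay measures filled wound area and nuclei per well; duplicate means given as ratio to mock and robust z-score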
Direction: migration robust z-score: higher = faster migration into the scratch; nuclei per well: higher = more cells in the well
Active means: 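Migration changed when robust z exceeds 2 or falls below -2 and mean nuclei number is at least 3300; otherwise not called changed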
Meaning of the calls: active = migration changed; inactive = no migration change, or too few cells

NADSYN1
- migration robust z-score: -0.62
- migration class with cell-count check: migration z between -2 and 2; enough cells
- nuclei per well, duplicate mean: 5392
- call: inactive

NINL
- migration robust z-score: 1.19
- migration class with cell-count check: migration z between -2 and 2; enough cells
- nuclei per well, duplicate mean: 5956
- call: inactive

TDRKH
- migration robust z-score: 0.7
- migration class with cell-count check: migration z between -2 and 2; enough cells
- nuclei per well, duplicate mean: 6194
- call: inactive

ACSS1
- migration robust z-score: -0.91
- migration class with cell-count check: migration z between -2 and 2; enough cells
- nuclei per well, duplicate mean: 5197
- call: inactive

XRCC3
- migration robust z-score: 0.23
- migration class with cell-count check: migration z between -2 and 2; enough cells
- nuclei per well, duplicate mean: 7071
- call: inactive

GLIPR2
- migration robust z-score: -0.06
- migration class with cell-count check: migration z between -2 and 2; enough cells
- nuclei per well, duplicate mean: 6106
- call: inactive

SOX21
- migration robust z-score: 0.31
- migration class with cell-count check: migration z between -2 and 2; enough cells
- nuclei per well, duplicate mean: 5492
- call: inactive

PRDM12
- migration robust z-score: 0.18
- migration class with cell-count check: migration z between -2 and 2; enough cells
- nuclei per well, duplicate mean: 6106
- call: inactive

LRRC63
- migration robust z-score: 0.4
- migration class with cell-count check: migration z between -2 and 2; enough cells
- nuclei per well, duplicate mean: 5508
- call: inactive

OR7D2
- migration robust z-score: 1.36
- migration class with cell-count check: migration z between -2 and 2; enough cells
- nuclei per well, duplicate mean: 5648
- call: inactive

PSMB10
- migration robust z-score: -0.08
- migration class with cell-count check: migration z between -2 and 2; enough cells
- nuclei per well, duplicate mean: 5400
- call: inactive

PAG1
- migration robust z-score: 1.54
- migration class with cell-count check: migration z between -2 and 2; enough cells
- nuclei per well, duplicate mean: 4253
- call: inactive

AURKA
- migration robust z-score: -1.56
- migration class with cell-count check: migration z between -2 and 2; enough cells
- nuclei per well, duplicate mean: 3686
- call: inactive

NBN
- migration robust z-score: 0.72
- migration class with cell-count check: migration z between -2 and 2; enough cells
- nuclei per well, duplicate mean: 5530
- call: inactive

NETO2
- migration robust z-score: 0.4
- migration class with cell-count check: migration z between -2 and 2; enough cells
- nuclei per well, duplicate mean: 6292
- call: inactive

CDK15
- migration robust z-score: -0.02
- migration class with cell-count check: migration z between -2 and 2; enough cells
- nuclei per well, duplicate mean: 5722
- call: inactive

COL18A1-AS1
- migration robust z-score: -0.9
- migration class with cell-count check: migration z between -2 and 2; enough cells
- nuclei per well, duplicate mean: 5526
- call: inactive

BAZ1A
- migration robust z-score: -0.5
- migration class with cell-count check: migration z between -2 and 2; enough cells
- nuclei per well, duplicate mean: 5384
- call: inactive

CCDC149
- migration robust z-score: 0.24
- migration class with cell-count check: migration z between -2 and 2; enough cells
- nuclei per well, duplicate mean: 5157
- call: inactive

RNF19B
- migration robust z-score: -1.06
- migration class with cell-count check: migration z between -2 and 2; enough cells
- nuclei per well, duplicate mean: 5632
- call: inactive

SPRR2E
- migration robust z-score: -0.44
- migration class with cell-count check: migration z between -2 and 2; enough cells
- nuclei per well, duplicate mean: 5811
- call: inactive

In a second layout: results already given
{"gene":"BAZ1A","migration robust z-score":-0.5,"migration class with cell-count check":"migration z between -2 and 2; enough cells","nuclei per well, duplicate mean":5384,"call":"inactive"}
{"gene":"CCDC149","migration robust z-score":0.24,"migration class with cell-count check":"migration z between -2 and 2; enough cells","nuclei per well, duplicate mean":5157,"call":"inactive"}
{"gene":"RNF19B","migration robust z-score":-1.06,"migration class with cell-count check":"migration z between -2 and 2; enough cells","nuclei per well, duplicate mean":5632,"call":"inactive"}
